Data as given in PubChem BioAssay AID1508588 (Peter MacCallum Cancer Centre, 2020)
Purpose: 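Genome-wide search for knock-downs that heighten vemurafenib action in melanoma cells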 (primary screen). Cells: human WM266.4 melanoma cells (BRAF V600 mutant). Knock-down reagent: siRNA pool against human genes, 40 nM. Duration: 96 h from transfection to read-out. Treatment: vemurafenib 300 nM (about IC25), added 48 h after transfection, for 48 h; comparison arm got DMSO vehicle only. Measurement: 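Cell gain (DAPI nuclei at end minus before drug, mean of two replicates) and medium lactate by absorbance per cell, both as ratio to non-targeting siRNA, also grouped into fold-change classes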. Direction: cell gain with vemurafenib: higher = more cell gain than with non-targeting siRNA; lactate per cell with vemurafenib: higher = more lactate made per cell. Rule for the call: 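a knock-down counts as enhancing when its fold-change classes with vehicle and with vemurafenib, taken together, show a stronger drug effect on cell gain or lactate per cell; exact class pairs not stated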. Calls: active = enhances vemurafenib effect; inactive = no enhancement seen.
The whole screen tested about 18,000 reagents; shown is a random part of them. 790 of all reagents (4.4%) count as active. 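Calls rest on a combination of fold-change classes in drug and vehicle arms, not all shown here.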 Some reagents were tested in more than one well and are listed for each. Reagent sequences are not shown.

gene	cell gain with vemurafenib	lactate per cell with vemurafenib	call
HFE	0.44	1.15	inactive
TCP10L3	0.62	1.45	inactive
ROCK1	0.91	1.53	inactive
TMC5	0.64	1.04	inactive
CCDC61	0.97	1.19	inactive
PDIA2	1.6	0.84	inactive
GATA4	0.61	0.91	inactive
ZNF691	0.89	0.73	inactive
GRIP1	0.21	0.92	inactive
FXYD5	0.44	1.38	inactive
ULK2	0.28	0.5	inactive
PSMB4	0.19	2.32	inactive
COMMD7	0.36	0.99	inactive
METTL18	0.48	0.5	inactive
GABRG3	0.22	2.63	inactive
CTSE	0.61	0.87	inactive
CSNK1A1L	0.71	0.8	inactive
HEATR5B	0.9	0.76	inactive
CCN6	0.33	0.25	inactive
MTIF3	0.81	1.08	inactive
USP18	0.32	0.8	inactive
ERGIC1	0.52	1.22	inactive
ZBTB10	0.18	0.9	inactive
SUCO	0.49	1.09	inactive
OR4F21	0.68	0.95	inactive
KNOP1	1.28	0.88	inactive
KRT84	0.59	0.53	inactive
EGR1	1.05	0.72	inactive
EBLN2	0.62	0.36	inactive
NMUR1	0.77	0.66	inactive
GLRA1	0.36	0.41	active
ADH5	0.31	1.91	inactive
DMD	0.33	0.74	inactive
RBM41	0.66	1.17	inactive
A1CF	1.18	1.08	inactive
MBTPS2	0.6	1.4	inactive
ASAP2	1.37	0.56	inactive
ZNF652	0.77	1	inactive
BAX	0.24	1.2	inactive
RHBDD3	0.08	0.79	inactive
SNX15	0.94	0.56	inactive
DGKZ	0.39	0.88	inactive
UROC1	0.57	1.31	inactive
POLR2L	0.4	1.17	inactive
PRR11	0.71	1.04	inactive
DTD2	0.64	0.79	inactive
HOXA7	0.42	1.79	inactive
SMCO3	1.09	0.86	inactive
ZNHIT1	0.35	1.25	inactive
CHRM5	0.43	0.95	inactive
CHRM5	0.28	1.93	inactive
NEIL1	0.42	1.02	inactive
AGPAT1	0.81	0.78	inactive
RNF114	0.99	0.74	inactive
POLRMT	0.57	1.26	inactive
SASH1	0.28	0.85	inactive
C7orf33	0.23	0.93	inactive
RARRES1	0.18	1.9	inactive
DEFB105B	0.21	1.55	inactive
ADCYAP1R1	0.55	0.7	inactive
R3HDM1	0.44	1.38	inactive
WFDC3	0.26	1.04	inactive
GPRIN3	0.6	0.58	inactive
DEFB116	0.72	0.48	inactive
CDH5	0.77	0.96	inactive
FAM174B	0.43	0.97	inactive
PHLDB1	0.65	0.73	inactive
MTA2	0.45	2.25	inactive
SLC9A1	0.41	1.34	inactive
CCDC38	0.15	1.96	inactive
BCKDHB	0.37	0.5	inactive
DPY19L2	0.51	1.36	inactive
MARCHF4	1.1	0.83	inactive
TMEM267	0.56	0.98	inactive
IL33R	1.11	0.62	inactive
RGS4	0.85	0.86	inactive
PAG1	0.25	0.84	inactive
SHF	0.11	0.76	active
TNNT2	0.19	1.06	inactive
NRGN	0.83	1.32	inactive
NIBAN2	0.59	0.56	inactive
ODAD4	-0.02	1.52	inactive
PVALB	0.27	1.36	inactive
INSL4	0.73	1.96	inactive
SUMO1	0.57	0.68	inactive
IL37	0.83	1.13	inactive
SERPINB9	1.57	0.74	inactive
SSH2	0.78	0.7	inactive
TANK	0.59	1.31	inactive
PRELID2	0.9	0.58	inactive
ASPH	0.31	2.04	inactive
NONO	0.85	0.9	inactive
GNPAT	0.98	0.66	inactive
PLCB4	0.2	1.19	inactive
ZNF48	0.56	1.25	inactive
UTF1	0.66	0.55	inactive
RIMKLB	0.97	0.76	inactive
CUL2	0.06	0.66	active
C2orf15	0.38	0.84	inactive
ZFP2	0.82	0.96	inactive
MSMP	1.06	0.47	active
GAPT	0.4	0.99	inactive
C10orf53	0.49	1.09	inactive
SNX32	0.56	0.88	inactive
TMEM115	0.64	0.86	inactive
LAMTOR5	0.45	1.29	inactive
ADGRG4	0.37	1.71	inactive

Sorted by “cell gain with vemurafenib” (low to high): some entries from above.
gene	cell gain with vemurafenib	lactate per cell with vemurafenib	call
PSMB4	0.19	2.32	inactive
GRIP1	0.21	0.92	inactive
GABRG3	0.22	2.63	inactive
ULK2	0.28	0.5	inactive
COMMD7	0.36	0.99	inactive
HFE	0.44	1.15	inactive
FXYD5	0.44	1.38	inactive
METTL18	0.48	0.5	inactive
GATA4	0.61	0.91	inactive
CTSE	0.61	0.87	inactive
TCP10L3	0.62	1.45	inactive
TMC5	0.64	1.04	inactive
ZNF691	0.89	0.73	inactive
ROCK1	0.91	1.53	inactive
CCDC61	0.97	1.19	inactive
PDIA2	1.6	0.84	inactive
